# Source: patent US20060287528A1, “Novel crystalline forms of a phosphoric acid salt of a dipeptidyl peptidase-iv inhibitor” (priority 2003, published 2006)
# Some of these results come from one statement about several compounds together.
# Assay: Solubility in water
# Format: physicochemical
row,Structure (SMILES),solubility in water
1,N[C@@H](CC(=O)N1CCn2c(nnc2C(F)(F)F)C1)Cc1cc(F)c(F)cc1F [anhydrate Form III],greater than 120 mg/mL
2,"N[C@@H](CC(=O)N1CCn2c(nnc2C(F)(F)F)C1)Cc1cc(F)c(F)cc1F [mixture of anhydrate Form I and Form III, (2R)-4-oxo-4-[3-(trifluoromethyl)-5,6-dihydro[1,2,4]triazolo[4,3-α]pyrazin-7(8H)-yl]-1-(2,4,5-trifluorophenyl)butan-2-amine dihydrogenphosphate anhydrate Form I and Form III mixture]",greater than 120 mg/mL
